# Primary screen of a compound library

Data taken from ChEMBL document CHEMBL3988442, “University of Dundee, Small-Polar-MMV Screening Library” (2021).

Mtb cholesterol medium: 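Phenotypic screen: M. tuberculosis growth, cholesterol and DPPC medium, 4 days; the read-out is not stated. Tested at 50 µM. The record gives no direction; compounds that gave an IC50 in retests scored well above the rest, so higher reads as more growth inhibition. Size under these conditions: about 69,000 compounds, about 370 of them at 50% or above in at least one test.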
Mtb glucose medium: 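Whole-cell growth test on Mycobacterium tuberculosis, read after 3 days in glucose-containing 7H9 medium; the read-out is not stated. Compounds at 50 µM. Direction is inferred from retests: higher values go with more growth inhibition. Of about 69,000 compounds tested this way, about 760 (1.1%) reached 50% or more in at least one test.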

Each number is a percent effect as filed.
How 0% and 100% were set is not recorded. Most values in the screen are low, and negative values occur.
Compounds were drawn at random from those tested, without regard to their results.
Two or more numbers in one place are separate tests of the same structure; such repeats can differ widely.

SMILES: COc1cccc(-c2noc(C3CCN(Cc4ccccc4C)C3)n2)c1.Cl (centres undefined)
Mtb cholesterol medium: -4.253%
Mtb glucose medium: -3.011%

SMILES: COC(=O)c1ccccc1NC(=O)c1nc2ccccc2n(C)c1=O
Mtb cholesterol medium: 18.45%
Mtb glucose medium: 25.4%

SMILES: COc1cccc(S(=O)(=O)NC(=O)COc2c(C)cccc2C)c1
Mtb cholesterol medium: -2.809%
Mtb glucose medium: 18.65%

SMILES: Cc1ccc(CCNC(=O)N2CCCC(Cc3nccn3C)C2)cn1 (centres undefined)
Mtb cholesterol medium: 18.68% and 1.502%
Mtb glucose medium: 7.058%

SMILES: Cc1noc(-c2ccc(N(C)Cc3ccncc3C)nc2)n1
Mtb cholesterol medium: -0.3759% and 3.556%
Mtb glucose medium: -3.617%

SMILES: CN1C[C@@H](C(=O)NC(C)(C)C)[C@@]2(CCc3ccccc3C(=O)N2)C1
Mtb cholesterol medium: 3.106%
Mtb glucose medium: 11.52%

SMILES: Cc1nc(-c2nc(C(=O)NC3CC3)c3ccccn23)cn1C(C)C
Mtb cholesterol medium: -8.61%
Mtb glucose medium: -5.739%

SMILES: CN1CCC(c2cccc(Cc3ccc(F)cc3)n2)CC1
Mtb cholesterol medium: 10.27%
Mtb glucose medium: -6.788%

SMILES: CC(Cn1cccn1)NCc1nc(-c2ccccn2)no1 (centres undefined)
Mtb cholesterol medium: -22.43%
Mtb glucose medium: -14.55%

SMILES: Cn1ccnc1C(=O)N1CCC2(CCN2c2ncccn2)C1.O=C(O)C(F)(F)F (centres undefined)
Mtb cholesterol medium: -15.28%
Mtb glucose medium: -3.576%

SMILES: O=S(=O)(NCCN1CC=CC1)c1cncc(Cl)c1
Mtb cholesterol medium: 1.439%
Mtb glucose medium: 12.81%

SMILES: Cn1cc(CCNC(=O)N2CCCC(Cc3nccn3C)C2)cn1 (centres undefined)
Mtb cholesterol medium: 6.478%
Mtb glucose medium: -22.74%

SMILES: c1cncc(-c2cccc(-c3ccn(CCN4CCCCC4)n3)c2)c1
Mtb cholesterol medium: 18.54%
Mtb glucose medium: 12.86% and 21.43%

SMILES: Nc1cnc(-c2cccc3ccnn23)cn1
Mtb cholesterol medium: -21.56%
Mtb glucose medium: -26.93%

SMILES: COc1ccc2c(ccn2CCC(=O)/N=c2\[nH]nc(C3CCCO3)s2)c1 (centres undefined)
Mtb cholesterol medium: -8.536%
Mtb glucose medium: -2.561%

SMILES: [H][C@@]12C[C@H](C(=O)NC(C)C)[C@@]([H])(CN(C(=O)NCc3ccccc3)C1)O2
Mtb cholesterol medium: -5.524%
Mtb glucose medium: -24.08%

SMILES: COc1ccc(Br)cc1NCC(=O)NC(C)(C#N)C1CC1 (centres undefined)
Mtb cholesterol medium: 10.63%
Mtb glucose medium: 3.697%

SMILES: CCN(Cc1ccoc1)C(=O)c1cc2c(c(S(N)(=O)=O)c1)CCC2
Mtb cholesterol medium: -6.447%
Mtb glucose medium: 10.69%

SMILES: COc1ccc(Br)c(C(=O)NCCNc2ccc(C(F)(F)F)cn2)c1
Mtb cholesterol medium: -10.11%
Mtb glucose medium: -9.535%

SMILES: CC(C)NC(=O)C1CN(C(=O)c2ccccc2)CC12CCOCC2 (centres undefined)
Mtb cholesterol medium: -9.384%
Mtb glucose medium: -3.644%

SMILES: O=C(O)C(F)(F)F.O=C(O)C(F)(F)F.[H][C@@]12CCCO[C@]1([H])[C@H](N1CCCC1)CN(c1ccc(C)nn1)C2
Mtb cholesterol medium: -6.899%
Mtb glucose medium: -11.63% and -5.922%

SMILES: Cc1cccc(-n2nc(CC(C)C)nc2CCCC(N)=O)c1
Mtb cholesterol medium: -24.07%
Mtb glucose medium: -23.32%

SMILES: CC(NCc1nnc2n1CCCC2)C(=O)N1CCc2sccc2C1 (centres undefined)
Mtb cholesterol medium: 2.988%
Mtb glucose medium: 22.18%

SMILES: Cc1cc(NCCCNc2cccnc2)n2nc(C)c(C)c2n1
Mtb cholesterol medium: 7.988%
Mtb glucose medium: -7.875%

SMILES: CC(C)NC(=O)N1CCC2(COCc3cnc(N4CCOCC4)nc32)C1 (centres undefined)
Mtb cholesterol medium: -1.717%
Mtb glucose medium: 6.988%

SMILES: Cc1cc(C)c2[nH]c(C(=O)NCCN3CCOC3=O)c(C)c2c1
Mtb cholesterol medium: 0.6258%
Mtb glucose medium: 17.98%

SMILES: CC(C)(C)c1n[nH]cc1CNC1CCC(C(F)(F)F)CC1.Cl (centres undefined)
Mtb cholesterol medium: -4.268%
Mtb glucose medium: 16.28%

SMILES: O=c1c(-c2ccnc(NC3CCCCC3)n2)cnc2sc(Cl)cn12
Mtb cholesterol medium: -2.349%
Mtb glucose medium: 17.11%

SMILES: Cc1nccn1Cc1nnc(C2CCN(c3ccncc3F)CC2)n1C
Mtb cholesterol medium: -42.4%
Mtb glucose medium: -16.19%

SMILES: CCn1cc(NC(=O)NCc2ccc(CN3CCOCC3)cc2)cn1
Mtb cholesterol medium: -7.105%
Mtb glucose medium: -2.115%

SMILES: Cn1cc(-c2cc(C(F)(F)F)n(CCCN)n2)cn1
Mtb cholesterol medium: -16.17%
Mtb glucose medium: -1.476%

SMILES: O=C(O)c1cccnc1N1CCN(Cc2ccc(F)cc2)C(CCO)C1 (centres undefined)
Mtb cholesterol medium: -35.57%
Mtb glucose medium: -56.19%

SMILES: CS(=O)(=O)NC1CCN(C(=O)c2ccc(Br)cc2)C1 (centres undefined)
Mtb cholesterol medium: -12.94% and -5.53%
Mtb glucose medium: -15.44%

SMILES: O=C(NCCc1ccc(Cl)cc1)c1coc(CN2CCOCC2)c1
Mtb cholesterol medium: -2.583%
Mtb glucose medium: 21.28%

SMILES: Cc1nc(C2CN(C)CCO2)cc(N2CCC(C(N)=O)CC2)n1 (centres undefined)
Mtb cholesterol medium: -12.07%
Mtb glucose medium: -0.8782%

SMILES: CC(C)c1ccc(-c2nnn(CCNS(C)(=O)=O)n2)cc1
Mtb cholesterol medium: -1.477%
Mtb glucose medium: 27.6%

SMILES: CCC(C(=O)NCc1ccncc1)N(c1ccccc1)S(C)(=O)=O (centres undefined)
Mtb cholesterol medium: 6.22% and 5.438%
Mtb glucose medium: 2.745%

SMILES: Cc1cc(C(=O)N2CCCC3(COCCN(c4ncccn4)C3)C2)[nH]n1.O=C(O)C(F)(F)F.O=C(O)C(F)(F)F (centres undefined)
Mtb cholesterol medium: 10.16%
Mtb glucose medium: -11.03% and -2.967%

SMILES: COC(C)(CNS(=O)(=O)c1cccnc1)c1ccccc1F (centres undefined)
Mtb cholesterol medium: -6.097%
Mtb glucose medium: 29.91%

SMILES: Cc1ccc(S(C)(=O)=O)cc1C(=O)NS(C)(=O)=O
Mtb cholesterol medium: -2.076%
Mtb glucose medium: -18.44%

SMILES: O=C(NCc1cccnc1)N1CCn2c(Cn3cccn3)cnc2C1
Mtb cholesterol medium: -33.01%
Mtb glucose medium: -12.48%

SMILES: COc1cccc(-c2nc(CNCCc3cccnc3)cs2)c1
Mtb cholesterol medium: 29.89%
Mtb glucose medium: 41.82% and 25.51%

Some entries from above, unchanged:

SMILES,Mtb cholesterol medium,Mtb glucose medium
O=C(O)C(F)(F)F.O=C(O)C(F)(F)F.[H][C@@]12CCCO[C@]1([H])[C@H](N1CCCC1)CN(c1ccc(C)nn1)C2,-6.899%,-11.63% and -5.922%
Cc1cccc(-n2nc(CC(C)C)nc2CCCC(N)=O)c1,-24.07%,-23.32%
O=c1c(-c2ccnc(NC3CCCCC3)n2)cnc2sc(Cl)cn12,-2.349%,17.11%
c1cncc(-c2cccc(-c3ccn(CCN4CCCCC4)n3)c2)c1,18.54%,12.86% and 21.43%
COc1cccc(-c2nc(CNCCc3cccnc3)cs2)c1,29.89%,41.82% and 25.51%